# PubChem BioAssay AID1159584, Peter MacCallum Cancer Centre, 2016
# Screen: 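Genes that CDH1-null MCF10A cells selectively depend on to survive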 (primary screen)
# Cell system: human MCF10A breast epithelial cells, parental and CDH1-null
# Knock-down reagent: siRNA against human genes
# Read-out: 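Cell viability by CellTiter-Glo ATP luminescence, each line scaled to the mean of mock wells across plates, then CDH1-null over parental ratio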
# Reading the numbers: CDH1-null / parental viability ratio: higher = CDH1-null cells survive relatively better than parental; CDH1-null viability vs mock: higher = more viable CDH1-null cells; parental viability vs mock: higher = more viable parental cells
# Shown is one part, drawn at random, of about 18,000 reagents tested. The record does not give: the amount of reagent, the time to read-out.
gene,CDH1-null / parental viability ratio,CDH1-null viability vs mock (fraction of mock),parental viability vs mock (fraction of mock)
DSC3,1.08,0.54,0.5
PLA2G4C,1.09,0.99,0.91
STON1-GTF2A1L,0.95,0.74,0.78
STAMBP,1.18,0.59,0.5
USP7,1.15,0.6,0.52
IFI30,1.14,0.96,0.84
ZFP2,0.81,0.76,0.94
GLI1,1.43,0.86,0.6
LYSMD3,0.98,0.51,0.52
TNFRSF11B,0.89,0.82,0.92
CNGA4,1.25,0.94,0.75
MAMDC4,0.92,0.7,0.76
GNG4,0.9,0.76,0.84
ADRA1B,1.95,0.82,0.42
LGALS13,1.01,0.83,0.82
MEAK7,1.09,1.07,0.98
LDLRAD2,1.15,0.76,0.66
ILKAP,1.38,0.91,0.66
DNASE1,0.91,0.87,0.96
ABCA8,1.43,0.6,0.42
OBP2B,0.97,0.88,0.91
CSTPP1,0.9,0.72,0.8
CD247,1.1,0.8,0.73
UBALD2,0.95,0.74,0.78
ADGRA2,0.72,0.62,0.86
SNAP91,0.86,0.96,1.12
TIMELESS,1.54,0.57,0.37
CRIPAK (retired record),0.84,0.62,0.74
CACNG8,1.2,0.9,0.75
CDK13,0.89,0.92,1.03
SLC25A21,1.08,0.82,0.76
ZNF234,1,0.68,0.68
ZBBX,0.92,0.7,0.76
TEX35,1.15,0.84,0.73
CCNG1,0.9,1.06,1.18
TMEM200B,1.05,0.84,0.8
JADE3,0.91,0.98,1.08
KRT35,0.89,0.73,0.82
NR2E3,0.9,0.88,0.98

The list goes on (4 carried over from the part before).
gene,CDH1-null / parental viability ratio,CDH1-null viability vs mock (fraction of mock),parental viability vs mock (fraction of mock)
TMEM200B,1.05,0.84,0.8
JADE3,0.91,0.98,1.08
KRT35,0.89,0.73,0.82
NR2E3,0.9,0.88,0.98
PRSS1,1.1,0.91,0.83
HECW1,1.14,1.04,0.91
FMC1,0.84,0.38,0.45
KRT86,1.01,0.79,0.78
ACR,1.21,0.7,0.58
IFNA4,1.09,1.05,0.96
PCDHB15,0.89,0.64,0.72
HAO1,0.95,1.08,1.14
CARMIL1,1.02,0.55,0.54
TMEM98,1.01,0.82,0.81
OR8D1,0.99,1.1,1.11
CYP2C8,1,1,1
KHDC4,1.13,0.85,0.75
SKIL,1.05,0.8,0.76
HOPX,0.84,0.68,0.81
BCL2L10,0.97,0.68,0.7
PRH2,1.05,0.81,0.77
TP53I11,0.82,0.7,0.85
CPNE1,0.85,0.66,0.78
MGAT4A,1.22,1.04,0.85
SMOC1,1.29,0.8,0.62
GALNT8,1.07,0.88,0.82
SLC26A5,0.88,0.64,0.73
FDXR,1.08,1.14,1.06
SEZ6L,1.01,0.78,0.77
VPS53,1.13,1.15,1.02
SEH1L,1,0.42,0.42
NAPRT,1.67,0.6,0.36
TUBA4A,0.84,0.53,0.63
